According to PubChem BioAssay AID248 (DTP/NCI, 2004):
The list shows only some results of the screen, not a fair sample: it gathers some chemical classes. Other doses and runs of a compound may be missing. T/C gives the treated animals as a percentage of the vehicle group. Some entries give survivors of the animals treated and no T/C: the source files T/C as zero there, which appears to mark a toxic dose or a test without result, not a measured value. Some survivor counts are full or nearly so, which does not show that the dose was tolerated: the source hardly ever lists a survival T/C far under the control, and the zero likely stands for such cases as well. Counts of survivors are from the toxicity check (mostly the fifth day) where no day follows; animals may have died later. Schedule codes are those of the source, taken here to give the interval after Q, in days (D) or hours (H), and the number of doses after X. Some entries hold several experiments; the results are listed from low to high. Where survival is the endpoint, this PubChem deposit counts one and a half times the control or more as active, and values a quarter to a half above the control carry no call in these data; other NCI protocols may use other cut-offs. Some entries show no survivor count and are marked so; the dose need not have been tolerated. Some T/C values are followed by the survivors on the day toxicity was checked, most often the fifth; without a count or a note in brackets, all were alive then.

System: L1210 leukemia ip in BDF1 mice, survival T/C
Test: NCI In Vivo Anticancer Drug Screen. Data for tumor model L1210 Leukemia (intraperitoneal) in B6D2F1 (BDF1) mice
Conditions: T/C endpoint: mean survival time, higher T/C = longer survival
[1] = dose: 50.0 mg/kg/injection, schedule: Q04DX003 (ip), vehicle: saline
[2] = dose: 100.0 mg/kg/injection, schedule: Q04DX003 (ip), vehicle: saline
[3] = dose: 200.0 mg/kg/injection, schedule: Q04DX003 (ip), vehicle: saline
[4] = dose: 25.0 mg/kg/injection, schedule: Q04DX003 (ip), vehicle: Klucel (hydroxypropylcellulose) (HPC)
[5] = dose: 50.0 mg/kg/injection, schedule: Q04DX003 (ip), vehicle: Klucel (hydroxypropylcellulose) (HPC)
[6] = dose: 100.0 mg/kg/injection, schedule: Q04DX003 (ip), vehicle: Klucel (hydroxypropylcellulose) (HPC)
[7] = dose: 200.0 mg/kg/injection, schedule: Q04DX003 (ip), vehicle: Klucel (hydroxypropylcellulose) (HPC)
[8] = dose: 400.0 mg/kg/injection, schedule: Q04DX003 (ip), vehicle: Klucel (hydroxypropylcellulose) (HPC)
[9] = dose: 25.0 mg/kg/injection, schedule: Q04DX003 (ip), vehicle: saline
[10] = dose: 75.0 mg/kg/injection, schedule: Q01DX001 (ip), vehicle: saline

SMILES: CN[N+](=O)[O-]
- T/C [1]: 103 % of control [survivor count not shown]
- T/C (dose: 100.0 mg/kg/injection, schedule: Q01DX001 (ip), vehicle: saline): 88 % of control [survivor count not shown]
- T/C [2]: 103 % of control [survivor count not shown]
- T/C (dose: 200.0 mg/kg/injection, schedule: Q01DX001 (ip), vehicle: saline): 100 % of control [survivor count not shown]
- T/C [3]: 111 % of control [survivor count not shown]
- T/C (dose: 400.0 mg/kg/injection, schedule: Q01DX001 (ip), vehicle: saline): 95 % of control [survivor count not shown]

SMILES: N/C(=N\[N+](=O)[O-])NCCCl
- T/C (dose: 12.5 mg/kg/injection, schedule: Q01DX009 (ip), vehicle: Klucel (hydroxypropylcellulose) (HPC)): 110 % of control
- T/C (dose: 25.0 mg/kg/injection, schedule: Q01DX009 (ip), vehicle: Klucel (hydroxypropylcellulose) (HPC)): 101 % of control
- T/C [4]: 98 % of control
- T/C (dose: 50.0 mg/kg/injection, schedule: Q01DX009 (ip), vehicle: Klucel (hydroxypropylcellulose) (HPC)): 100 % of control
- T/C [5]: 94 % of control
- T/C (dose: 100.0 mg/kg/injection, schedule: Q01DX009 (ip), vehicle: Klucel (hydroxypropylcellulose) (HPC)): 105 % of control
- T/C [6]: 91 and 95 % of control
- survivor count [7]: 6 of 6
- survivor count [8]: 0 of 6

SMILES: CN(CCCl)C1CCCCCCC1
- T/C (dose: 12.5 mg/kg/injection, schedule: Q04DX003 (ip), vehicle: saline): 104 % of control
- T/C [9]: 110 % of control

SMILES: O=P(c1ccccc1)(c1ccccc1)N1NN=N/C1=C/c1ccccc1
- T/C (dose: 100.0 mg/kg/injection, schedule: Q01DX001 (ip), vehicle: steroid suspending solution): 103 % of control
- T/C (dose: 200.0 mg/kg/injection, schedule: Q01DX001 (ip), vehicle: steroid suspending solution): 95 % of control
- T/C (dose: 400.0 mg/kg/injection, schedule: Q01DX001 (ip), vehicle: steroid suspending solution): 98 % of control

SMILES: CN(C)C(=O)Cc1ccc(N(CCCl)CCCl)cc1
- T/C (dose: 4.0 mg/kg/injection, schedule: Q12HX018 (ip), vehicle: other): 103 % of control
- T/C (dose: 6.0 mg/kg/injection, schedule: Q12HX018 (ip), vehicle: other): 111 % of control
- T/C (dose: 8.0 mg/kg/injection, schedule: Q12HX018 (ip), vehicle: other): 114 % of control

SMILES: CCN(CCCl)Cc1cccc2ccccc12
- T/C [9]: 95 % of control
- T/C [1]: 89 % of control
- T/C [2]: 122 % of control [2 of 3 alive]
- survivor count [2]: 0 of 3
- survivor count [3]: 0 of 3
- survivor count (dose: 400.0 mg/kg/injection, schedule: Q04DX003 (ip), vehicle: saline): 0 of 3

SMILES: C=CCC[P+](CC)(c1ccccc1)c1ccccc1.F[P-](F)(F)(F)(F)F
- T/C (dose: 0.78 mg/kg/injection, schedule: Q04DX003 (ip), vehicle: Klucel (hydroxypropylcellulose) (HPC)): 93 % of control
- T/C (dose: 1.56 mg/kg/injection, schedule: Q04DX003 (ip), vehicle: Klucel (hydroxypropylcellulose) (HPC)): 109 % of control
- T/C (dose: 3.12 mg/kg/injection, schedule: Q04DX003 (ip), vehicle: Klucel (hydroxypropylcellulose) (HPC)): 94 and 106 % of control
- survivor count (dose: 6.25 mg/kg/injection, schedule: Q04DX003 (ip), vehicle: Klucel (hydroxypropylcellulose) (HPC)): 4 of 6
- survivor count (dose: 12.5 mg/kg/injection, schedule: Q04DX003 (ip), vehicle: Klucel (hydroxypropylcellulose) (HPC)): 1 of 6
- survivor count [4]: 0 of 6
- survivor count [5]: 0 of 6 and 1 of 6
- survivor count [6]: 0 of 6
- survivor count [7]: 0 of 6
- survivor count [8]: 0 of 6

SMILES: O=C(O)C(O)(c1ccccc1)c1ccccc1
- T/C (dose: 100.0 mg/kg/injection, schedule: Q01DX001 (ip), vehicle: saline with Tween-80): 105 % of control [survivor count not shown]
- T/C (dose: 200.0 mg/kg/injection, schedule: Q01DX001 (ip), vehicle: saline with Tween-80): 93 % of control [survivor count not shown]
- T/C (dose: 400.0 mg/kg/injection, schedule: Q01DX001 (ip), vehicle: saline with Tween-80): 96 % of control [survivor count not shown]

SMILES: CCCCCCCOP(=O)(CC)OCCCCCCC
- T/C (dose: 5.0 mg/kg/injection, schedule: Q01DX001 (ip), vehicle: saline): 103 % of control [survivor count not shown]
- T/C (dose: 10.0 mg/kg/injection, schedule: Q01DX001 (ip), vehicle: saline): 94 % of control [survivor count not shown]
- T/C (dose: 20.0 mg/kg/injection, schedule: Q01DX001 (ip), vehicle: saline): 96 % of control [survivor count not shown]
- T/C (dose: 40.0 mg/kg/injection, schedule: Q01DX001 (ip), vehicle: saline): 105 % of control [survivor count not shown]
- T/C (dose: 80.0 mg/kg/injection, schedule: Q01DX001 (ip), vehicle: saline): 94 % of control [survivor count not shown]

SMILES: Cc1ccc([N+](=O)[O-])cc1NC(=O)NNc1ccc([N+](=O)[O-])cc1[N+](=O)[O-]
- T/C (dose: 25.0 mg/kg/injection, schedule: Q01DX009 (ip), vehicle: saline with Tween-80): 93 % of control
- T/C (dose: 50.0 mg/kg/injection, schedule: Q01DX009 (ip), vehicle: saline with Tween-80): 100 % of control
- T/C (dose: 100.0 mg/kg/injection, schedule: Q01DX009 (ip), vehicle: saline with Tween-80): 98 % of control

SMILES: CC(C)(C)c1ccc(P(=O)(Cl)C(C)(C)C)cc1 (configuration not stated)
- T/C [10]: 105 % of control
- T/C (dose: 150.0 mg/kg/injection, schedule: Q01DX001 (ip), vehicle: saline): 96 % of control
- T/C (dose: 300.0 mg/kg/injection, schedule: Q01DX001 (ip), vehicle: saline): 97 % of control

SMILES: CCN(CC)CCOC(=O)C(O)(c1ccccc1)c1cccc(C)c1 (configuration not stated)
- T/C [10]: 109 % of control

SMILES: CS(=O)(=O)N1CC(Cl)CN(S(C)(=O)=O)C(CCl)C1 (configuration not stated)
- survivor count (dose: 12.5 mg/kg/injection, schedule: Q04DX002 (ip), vehicle: Klucel (hydroxypropylcellulose) (HPC)): 3 of 3
- T/C (dose: 25.0 mg/kg/injection, schedule: Q04DX002 (ip), vehicle: Klucel (hydroxypropylcellulose) (HPC)): 95 % of control
- T/C (dose: 50.0 mg/kg/injection, schedule: Q04DX002 (ip), vehicle: Klucel (hydroxypropylcellulose) (HPC)): 100 % of control
